Experimental findings from patent US6759238B1, “Multidrug resistance associated proteins and uses thereof” (priority 1999, dated 2004) are described below.

One test concerns CEM-r1 cells. Kind of test: Cytotoxicity assay (growth inhibition, Coulter counter). The method, then: Selection for PMEA resistance was carried out by exposing CEM-SS cells in culture to increasing concentrations of PMEA, over several months.
The IC50 values were obtained after 2 days of culture. Each result is the mean of one representative experiment performed in duplicate. The cultures with the purine nucleosides adenosine, 2′-deoxyadenosine, and arabinosyladenine contained 5 μM deoxycoformycin to inhibit adenosine deaminase activity.
(§1) All assays were performed in 24-well tissue culture plates (Costar, Cambridge, Ma.). […] At the end of the incubation, the cell concentrations, sizes, and volumes were counted in a Coulter counter (Coulter Electronics, Hialeah. Fla.).

Another test deals with CEM-SS cells. The description is as above. As to conditions: Homo sapiens, 48 h. The method, then:
[…] Each result is the mean of one representative experiment performed in duplicate. The cultures with the purine nucleosides adenosine, 2′-deoxyadenosine, and arabinosyladenine contained 5 μM deoxycoformycin to inhibit adenosine deaminase activity.
as §1

For orientation: IC50 means the concentration needed to halve the response being measured. Low values mean inhibition by little substance, high ones a need for much substance.

Molecules are shown by their SMILES.

For the compound `COc1cc2c(c(OC)c1OC)-c1ccc(OC)c(=O)cc1[C@@H](NC(C)=O)CC2` [Colchicine], the “Relative Resistance” value in the test on CEM-r1 cells (CEM-r1 vs CEM-SS (Table 3)) is given as “˜1”. The half-inhibitory concentration (IC50) stood at 0.013 µM with CEM-r1 cells (Homo sapiens, 48 h) and 0.014 µM with CEM-SS cells.
